PubChem BioAssay AID1671195 – Yale University, 2021
Screen: 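Knockdowns that increase or decrease uptake of fluorescent LDL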 (primary screen). Cells: human Huh7 hepatoma cells. Reagents: siRNA pool against human genes, 18 nM. Duration: about 2 to 2.5 days of knockdown, then 8 h LDL uptake. Conditions: DiI-labelled LDL at 30 µg/ml for 8 h, in lipoprotein-deficient serum medium. Detection: 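Per-cell DiI-LDL intensity by automated imaging; well means scaled to the plate median and given as a robust z-score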. Direction: robust z-score: higher = more LDL uptake after knockdown. Hit rule: 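Active when two or more replicates show a robust z-score above 2 or below -2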.
The whole screen tested about 22,000 reagents; this is a part drawn at random. About 1,510 of all reagents (6.9%) were called active. 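Active includes knockdowns raising or lowering LDL uptake; positive z-scores mean more uptake, negative mean less.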 A number with no mark means an inactive call. Reagents against one gene are numbered here. No sequences are given here.

robust z-score, replicate 1	robust z-score, replicate 2	robust z-score, replicate 3	gene knocked down	reagent no.
-0.44	-0.457	-0.116	SLC7A11	1
0.429	-0.017	0.685	RPL26	1
1.74	1.51	1.39	DMRTA2	1
-1.11	-0.595	-0.473	CCL22	1
0.48	0.973	0.163	KMT5C	1
2.15	1.74	1.33	TBL1XR1	1
0.218	-0.237	-0.126	MAST4	1
-0.0779	-0.227	-0.0493	MAST4	2
-1.11	-1.18	-1.01	C1orf220	1
-0.7	-0.837	-0.321	ZSCAN31	1
0.114	-0.215	-0.511	LINC01951	1
0.575	-0.0756	0.24	MTLN	1
-0.795	-1.72	-0.605	VPS39	1
-0.915	-1.15	-0.947	SBNO2	1
-1.16	-0.635	-0.659	RBM39	1
-0.201	0.831	1.9	SLAIN2	1
0.177	0.727	1.62	IKZF1	1
-1.73	-1.5	-0.768	IKZF1	2
-0.321	-0.453	-0.738	ITGA1	1
-0.0689	-0.119	0.328	WWOX	1
-1.51	-1.13	-1.26	ACTA2	1
3.91 (active)	2.68	3.19	ZC3H12C	1
-2.18 (active)	-2.1	-1.57	MIX23	1
-0.916	-0.65	-0.65	CYRIA	1
-0.35	0.81	-0.737	LINC02609	1
0.0769	0.0471	0.62	PANK3	1
0.781	-0.195	1.01	NONO	1
0.192	0.276	0.703	TGIF2	1
-0.247	-0.268	-0.402	SYNE2	1
-1.66	-0.871	-1.54	MVD	1
0.804	-0.00502	1.23	ATG2B	1
-0.551	0.345	0.6	CDK9	1
-0.466	-0.595	-0.14	LOC388361 (retired record)	1
-1.21	-1.21	-0.186	CLHC1	1
-0.0957	-0.769	-0.36	MTFMT	1
0.787	-0.692	1.14	ANKRD28	1
-0.125	-0.256	-0.305	MLX	1
-0.59	-0.356	-0.738	PPRC1	1
0.48	0.238	0.13	SLC47A2	1
-1.77	-1.71	-1.72	PAF1	1
-0.47	-0.454	-0.408	ZNRF2	1
-1.83	-1.4	-1.35	TNN	1
-1.6	-1.43	-1.77	PDHA2	1
0.529	0.474	0.478	CLMP	1
2.38 (active)	0.301	4.33	VIM	1
-1.83	-1.57	-1.61	LOC403312	1
-2.46 (active)	-2.65	0.637	GSTK1	1
-0.557	-1.75	-2.02	POLE4	1
0.945	-0.683	-1.23	OR2T1	1
0.996	2.73	0.792	ATCAY	1
-0.809	-0.744	-0.809	DTX3L	1
-1.4	-2.21	-1.15	TRIM29	1
0.523	-0.639	-0.61	LOC441344 (retired record)	1
-0.0942	-0.744	1.31	BMX	1
2.3 (active)	2.47	2.8	EVI2A	1
2.52 (active)	2.56	1.92	PKP1	1
-1.61	-1.82	-1.44	FIP1L1	1
-0.886	-0.78	-0.4	KBTBD12	1
2.83 (active)	3.51	3.26	IL18	1
-2.55	-0.999	-0.627	ADAT1	1
1.29	1.34	0.967	NBN	1
0.37	-0.603	-0.147	FAM13A	1
1.29	2.98	1.25	B4GALT6	1
-0.945	-1.06	-1.14	BCAT1	1
0.512	1.36	0.871	HPS4	1
0.52	0.102	-0.314	TRPM8	1
-2.22 (active)	-1.92	-1.91	MATN3	1
-0.924	-0.256	-0.216	NOLC1	1
-1.19	-2.17	-0.966	LOC401861 (retired record)	1
2.06 (active)	2.4	3.03	KCTD15	1
0.244	0.304	0.528	ERV3-2	1
5.45 (active)	6.65	5.56	ACSM4	1
0.716	0.439	1.05	JAK2	1
-0.713	-1.13	-0.692	ZNF687	1
-1.08	-0.402	-1.17	MAN2C1	1
0.968	1.44	0.72	LOC391054 (retired record)	1
1.26	0.0761	-0.474	SCRN1	1
0.657	-0.294	0.164	FTSJ3	1
0.123	0.377	0.462	ARHGAP18	1
-1.67	-0.453	0.522	COIL	1
0.492	1.23	1.56	SGSM1	1
-0.993	0.227	-0.0879	GAD2	1
0.0191	-0.472	0.0416	NABP2	1
-0.0464	-0.0552	-0.0116	CHAMP1	1
0.569	0.763	0.227	SERINC5	1
-0.125	-0.687	-0.819	DFFB	1
-1.53	-0.363	0.0707	TCL1A	1
